Source: paper PMC4938201
These are yes or no findings as the source states them, for the method shown. Some binding calls cover weakened binding; strength is not graded here.

Sequences of proteins named here, by UniProt entry; tags and fusion partners are left off. Residues count along the entry.
UniProt O75306, residues 34-463: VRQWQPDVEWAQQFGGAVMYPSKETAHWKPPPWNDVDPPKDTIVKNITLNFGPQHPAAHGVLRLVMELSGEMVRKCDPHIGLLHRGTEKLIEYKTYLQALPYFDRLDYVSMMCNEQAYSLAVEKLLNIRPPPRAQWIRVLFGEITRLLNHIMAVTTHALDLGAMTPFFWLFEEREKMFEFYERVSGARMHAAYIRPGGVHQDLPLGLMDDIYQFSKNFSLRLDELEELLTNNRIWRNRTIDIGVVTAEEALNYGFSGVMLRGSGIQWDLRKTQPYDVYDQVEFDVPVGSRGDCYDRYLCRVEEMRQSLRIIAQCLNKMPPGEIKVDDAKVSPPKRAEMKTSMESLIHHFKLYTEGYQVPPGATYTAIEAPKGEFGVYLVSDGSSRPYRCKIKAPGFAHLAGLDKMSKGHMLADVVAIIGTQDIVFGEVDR
UniProt Q9BU61: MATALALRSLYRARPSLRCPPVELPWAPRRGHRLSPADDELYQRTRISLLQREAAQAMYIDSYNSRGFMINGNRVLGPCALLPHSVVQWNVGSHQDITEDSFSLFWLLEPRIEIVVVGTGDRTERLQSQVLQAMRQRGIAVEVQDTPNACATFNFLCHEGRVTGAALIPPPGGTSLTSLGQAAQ

Biological target: peripheral arm subunit NDUFS2 (endogenous in 143B cells) (human (endogenous in 143B)) (UniProt O75306)
Assay: native gel or EMSA; BN-PAGE of inner mitochondrial membrane proteins of 143B cells, Western-blotted and probed with antibodies against NDUFS2 and NDUFAF3; cells treated with negative control siRNA or siRNA for NDUFB3 or NDUFAF5

Substance: assembly factor NDUFAF3 (endogenous in 143B cells) (from UniProt Q9BU61 1-184)
- binding: binds
